Laboratory results as given in publication PMC11896342.

Target: NAD+-dependent deacetylase sirtuin 3 (mouse (endogenous in BMSCs))
Test: co-IP; proteins extracted from BMSCs, incubated overnight at 4°C with anti-Sirt3 antibody and Protein A + G agarose beads, washed three times, eluted; blotted with anti-YME1L1 (1:1000)

binding: binds
B1: YME1L1 (protein, UniProt O88967 1-715)
chain: MFSLSSTVQPQVTIPLSHLINAFHSPKNISVSVNTPVSQKQHRDTVPEHEAPSSEPVLNLRDLGLSELKIGQIDKMVENLLPGFYKDKRVSSCWHTSHISAQSFFENKYGHLDMFSTLRSSSLYRQHPKTLRSICSDLQYFPVFIQSRGFKTLKSRTRRLQSTSERLVEAQNIAPSFVKGFLLRDRGTDLESLDKLMKTKNIPEAHQDAFKTGFAEGFLKAQALTQKTNDSLRRTRLILFVLLLFGIYGLLKNPFLSVRFRTTTGLDSAVDPVQMKNVTFEHVKGVEEAKQELQEVVEFLKNPQKFTVLGGKLPKGILLVGPPGTGKTLLARAVAGEADVPFYYASGSEFDEMFVGVGASRIRNLFREAKANAPCVIFIDELDSVGGKRIESPMHPYSRQTINQLLAEMDGFKPNEGVIIIGATNFPEALDNALIRPGRFDMQVTVPRPDVKGRTEILKWYLNKIKFDKSVDPEIIARGTVGFSGAELENLVNQAALKAAVDGKEMVTMKELEFSKDKILMGPERRSVEIDNKNKTITAYHESGHAIIAYYTKDAMPINKATIMPRGPTLGHVSLLPENDRWNETRAQLLAQMDVSMGGRVAEELIFGTDHITTGASSDFDNATKIAKRMVTKFGMSEKLGVMTYSDTGKLSPETQSAIEQEIRILLRESYERAKHILKTHAKEHKNLAEALLTYETLDAKEIQIVLEGKKLEVR

No constants are given. Whether binding was seen depends on the method and setting. Binding seen in cells or lysates may run through a third protein. A result given as binding can be weak or reduced; the word gives no strength.
